No constants are given. Whether binding was seen depends on the method and setting. Some entries that bind do so weakly or less than the wild type.

This is an account of results in patent US20260209368A1 (PROMETHEUS BIOSCIENCES, published 2026).

This assay concerns the target T1, DR3 receptor on human TF-1 cells (human) (UniProt Q93038).
T1 sequence (looked up): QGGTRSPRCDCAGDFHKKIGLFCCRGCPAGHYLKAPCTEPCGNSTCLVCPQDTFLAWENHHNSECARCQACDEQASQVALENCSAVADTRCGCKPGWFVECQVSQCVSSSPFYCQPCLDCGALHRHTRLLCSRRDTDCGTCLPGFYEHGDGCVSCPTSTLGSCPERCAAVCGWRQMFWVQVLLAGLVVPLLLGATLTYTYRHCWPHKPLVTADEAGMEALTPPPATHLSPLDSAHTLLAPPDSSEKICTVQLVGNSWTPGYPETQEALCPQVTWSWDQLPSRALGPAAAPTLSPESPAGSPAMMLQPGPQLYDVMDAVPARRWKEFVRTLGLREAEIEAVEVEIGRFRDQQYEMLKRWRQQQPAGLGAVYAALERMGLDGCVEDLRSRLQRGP
As to the kind of experiment: TF-1 cell caspase activation assay.

B1: recombinant cynomolgus monkey TL1A protein (ligand)
chain: LKGQEFAPSHQQVYAPLRADGDKPRAHLTVVRQTPTQHLKNQFPALHWEHELGLAFTKNRMNYTNKFLLIPESGDYFVYSQVTFRGMTSECSEIRQAGRPNKPDSITVVITKVTDSYPEPTQLLMGTKSVCEVGSNWFQPIYLGAMFSLQEGDKLMVNVSDISLVDYTKEDKTFFGAFLL
For the molecule B1, the binding entry is “binds”.
